# Assay results from PMC4046817.
# Construct, isoform or probe ends are uncertain for at least one entry. Negatives hold for the conditions tested. Protein sequences can lack the tags named with them.
# Molecular target: T1, Ss-LrpB (UniProt Q7LX67)
# T1 sequence (looked up, limits assumed): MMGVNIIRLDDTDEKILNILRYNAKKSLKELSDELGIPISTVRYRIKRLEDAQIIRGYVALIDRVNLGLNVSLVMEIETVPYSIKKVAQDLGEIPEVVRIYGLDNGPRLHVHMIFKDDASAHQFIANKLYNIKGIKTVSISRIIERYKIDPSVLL
# Assay: EMSA
# Conditions: EMSA/footprinting in LrpB binding buffer (ref. 27); composition, pH and temperature not given; recombinant protein; label: 5'-32P; probe letters rebuilt from the primers and the genome
row,Sequence,binding result
1,AGTATGGTGGTTTTCCTTAGTGGTATTTTTATTCCTAACATTTCAATCAAGATATATACTTTTCAGTTCAAATTTAAAATTAAGTACCATGTAAGTATAGTCTACTTATACATTTCAGTATCAGTAATTATTATAATTACAGTTTTATGTATTTTTCACATATCACTAGAGTTCGATATTGCTAAATAAAAGATTCGTACTATATTATGGAGATTTTCACAGCAGAAAGTAATAAGCTCTGGCTTCCTTCACCTTAAAAGGTTAAGGTTTCAGTTTTAAACACATTATGAGAATGTGCGGACCCGGCGGGATTCGAACCCGCGACCACCGGCTTTCTTCCGAAAGTTAGGAGGCCGGC (double strand) [Ssot18 fragment],binds
2,GACTTTATTGCCAGAAATGCAAATCTTGAAAGGATTAAGGCTTGCCACAACTATTACCCAGTCTTGTATAGTGGGATATCTAAAGAGATCTTTATAGAGAAAAATAGGATATTTAAGGAAAGAGGTATAGAGATCGGTGCGTTTATCTCTAATCCAAAGTTTAATCTCAGAACCACATTAGAGGTTTTAAGGTATGTAGAACCATTCGATTCTGCCAATTACTTGTTCAAATTCGTCGACAGAGTTTTAATAGGAGACCCCATTCCAGATTATGAAAGTTTAAGGCAAGTATCGGAAGTTTTCAAGTCTGATATTACGAAGATAAGAATTAAAGTATATGATGAAAGCGTGGGCAAAAGATTAGATAAAAAGTTTGCAGTGGAAAA (double strand) [Sso1272 fragment],binds
3,TGAGCTCGTACAATAGTGATAATAAAGTTATCAGATACTTGACAGATTTAGGTAGGTCATGTGACTTCCAGGTTTAACATTTTGAAAGATCTAGTTTGTTTGAAGAAGGAGGAACAACATTTCCTCTCTGATTTCTTTACTTAACTCTTATTTTTGAAGAGGATATAAAAACCCAGAACATGACGTACGAGTTGTGTTAAAAATATTTTATGTTTATCTTCGTTTATCTACTTCGTTCCTTGATAAAAGAAAGGCTCTATAAATTCGATCTATTGTTATATATTTATTAATTTTAATAGTTTGATTTTAGGCTATTAAATATACTTGATACAATAAATTAGTATTCGATTCTATTTCCAGCCTAAGTAGCATTTACAATAATATAGTTCGAGTTTACTTCATCCTTATGGTGTAGCGATAGCTTTAAAATAGTTTGCTTCGATATTAACATGCGGA (double strand) [Sso1027 fragment],binds

# Same assay, conditions: none or only nonspecific; EMSA/footprinting in LrpB binding buffer (ref. 27); composition, pH and temperature not given; recombinant protein; label: 5'-32P; probe letters rebuilt from the primers and the genome
row,Sequence,binding result
1,AAGGCTGAAAAATATGACTTGCTTAACGTGATTTTGTTTTTAATAACAAATTTTGCTACAGGTGGAGTAAAATAAATCTCGGCTAGAATTTCACCCTTCTTATTCTTTATATATTCTATGCTACCTTTATTACCTTTTATGGTAGGTATATAACCGGATTCTATAATACTCAATAGAAACTCATAAAATTCCAATTCCTTTCTTAAGCTTGTAATCTTACTCTCAAGGAATTTTTTTAGTTCATCAGTGTTAACACTCATCACAAATATCTATATACATTAAACTATATATAACCTAAACTGCAATAGTTAGTTTAATGAAAGATAAAGTTAGAGTTGCCGTAGTTGGAGGTTCAGGATATACGGGCGGAGAATTACTAAGAATATTAGTTACACATCCGAAGACAGAAATATCAGTCATAACTTCTAGAGAATATGCGGGAAAACCA (double strand) [Sso0154 fragment],no binding
2,CAGTGTGAAGGCAATTGGAATAACTGCTGATGATCTCATAAAAATAATAGAAGAGGTGGTAAGGTGAGGCCATTATTCCTTTATGCTCCCAATTTAAAGAGGTATGAGAGTGAGTTTTTAGATTCTAGAAAAGGTTGGAAATCAATATCTGTTACGGGTACTTATTGTGCATTTAACTGTAAACATTGTGGTAGGCGAGTATTAGAATCAATGATTGACGGTTCTACTCAAGGTAAAATTGAGAAAGAAATTATGGAAGCAATTAGTAGAGGAGATGAGGGAATTATACTATCTGGTGGTTCTACATCGAGAGGAGATGTTCCGATATGGAGGTATTCTAATTTATTGAAGAGATATTCCGATAGACTTACAATAATAGCTCACACTGGTGTAGTTAAAAACGAAGAAATAGCTAGGAAATTTAAGGAAAGTGGTGTGAAAATCGCATTGTTAGATATGGTATCCGATAATGATGCAATTAAAGATATTTTAGGGCAACCATTTACCG (double strand) [Sso1114 fragment],no binding
3,TACGCCACAAATACCGACACCAGAAATATCTAAAAAGATAGCAAAAATTCCAGGAGTTGAAGTAGTATATGAAACTACTGGAGATTATGATATTCTAGTAATAGTTAGAGGGACAAACATTACATCAATCAATAGGACAATAGATGAGATTAGAAGCATTCAAGGTGTTGTGGGAACAAATAGTACTATTATCCTTAGAACCTGGTTCTAAAATCGTACCACTTATTACTAAAAACTTTTTCTACACAAAACTAAGTTAGTATCTAACTGACCTTCAATGGTAAATCTAAAATGTCCTATCTGTGGTGGAGAAATAACTGTAGAAGACGATGCGTTACCAGGAGAACTTGTAGAACATGAATGCGGAGCTCAATTAGAAGTTGTAAAACAAAACGGCAAATTGTCACTTAGACTAGCAGAGCAAATAGGTGAGGATTGG (double strand) [Sso5317 (lysW) fragment],no binding
4,TCAGTAACTCCGATAAGTTGTTAAGGAAAGAGTTGGGCCTCTTGGATCTAACCTTTTTATCTTTAAGTGCAATGATAGGTTCTGGTTGGTTACTAGCTTCCTTAAGCGTGGCATCCATAGCGGGGCCATCTGGAATTTTATCTTGGATAATAGCTGGGATAATGGTAATGTTTATAGGGTTAGCTTATGCCGAACTTGGAAGTTCAATACCTAAAACTGGTGGTATAGTTAGATATCCAGTTTATTCCCACGGAAGTTACACTGGATTTGTCATAGCATTTCTATATCTTCTCTCGGCAATCTCTACACCTTCTATAGAAGCTTTAGCAACAATCGAATACTTAACTAATGTAAACCCTACTTTGAGTAAATTGCTTACTAACTCAACAGTTGTTAACGGCACACCAGTTACTATATTGACGCTTCCCGGATTACTGTTTTC (double strand) [Sso2043 fragment],no binding
5,TCCCTGGGAACTTAATTATTGCAATCATTCTCTTCTCACTCTAACGAGTATTTTATGAATTATCGGATTGTATAATCTTCCCTCATTGGCAATTTTTTCAATTAAATTCTTTGCATCCTCTTCATTATTGGCCTCAATTTTGAACTGGATGTACTTTCCTACTCTCGTTTCAATTATGTTGTTTGTGTATTTCTCAATTACATATTTTTGTATTGTTTCTCCTTCTGGATCTCTAACTGAGTCTTTATTTATTATTATCAATTCTACATAGTATTTCATAAAGGGGCCCTCATGAGGTAATTCTTTTTAGAAATTCCTCATACGAGGATTTTACTGTTTTTAAATCGTAACCCTTCCTATATAAATCCTTATCATAAATTCTGGAATTACCATCTCTAATTCTCATACTATCTAACGATATTTCATCTCCAATTACTAGTTTATCGCCC (double strand) [Sso6264 fragment],no binding
6,TCTGGGAATCTAATTCTTGAAGCAATTATAACACCTATAACTGCTATCGGAATAAACCATAGAAATACATCCCTATAGTCATATCTAGTTAGTAAATAGACTTCAATTGCAGGGCCTAGGATCAAACTGGTACTAAGGCTAGTTGAGTAAAGGGATAGTAGTCTCTCAACTGATTTCTTATCATTTGCTAAACTCGCTGCTGTTATTAGATTAGGCATTACTAAACCAAAAGCAATCCCAGCGAAGATTGAGATTATCCATATTGATATTACGTTAGACAGATAATAGAGTGGTAAGGAAAGTAAAATTATAATATTCGATATAACGAACGCCCTTTTTCTTAGCTTCGAATTAAGTTCAGGATTAATAAATGTTGTGGCAATGAAGTTGAATGTAAATAATAAGGCTGATAAAAGGCCTACCATAGAGTTAGATAGCTGAAGACTATATTTCGCTAAGAGTGGAACTGTTGTAGTAACCATGTTATTTGTAGCTCTAGCTGAGATCGTCATCAGTACAAGGATTATGGCTG (double strand) [Sso1890 fragment],no binding
7,TGTGAACTTGTTGAATTTTCCAGAAGAGTTAGAAGGATCACAAAGCTAAATTGAACATCTCAACATTAGTTGAAATAAAGGTAATGAGTTTGGACAACGATTTTGTTAATTGACGATAAACTATAAATAAAAGACTTGAAATAAAAAGAGAATTATTATTTGACAAAATGAAGACAAGTCTCGAATGAGAGTGTTTGGATCCTTTTATAAGGCCTAAAAAGTTATTTCTTCAACTTATCTTCTATATATTCTATAATTTCCGCTATATTCTGGGTTGATTCATCGTTATTGAAGGTCTTATTTAAATCACTACTCTTTATTATAATATGTCGTAATTTTTCATCGCAGTAGAAAAGTTCTATTTTTAAGTCCTTATAGATGTATTCATCTACTTTAATTATTCCCTCGTAGACATAACTCCTAACCTTAAATATGTTAGTTTTTGCCCTTAAGAAGTCTTCA (double strand) [Sso2142 fragment],no binding
8,TTGATGGCGTTAGTGTGACAATTGTGTTAAAGCCGGAATAGGAGAAAAAGGCCAAATTCGACGTTGTCAATACTCCTTGTATTCCATGGGGAAACAACGGTACGAAATTATGTACTTTTATCCCTACTATAATGGGGATTGTTAATGAGAAGAGTATTAGACTTGAAATGTTTATTATCACAAATATCGTATCGACTTCAGCAACTGTCCCTATCCCGAAATAGTCCAAAACCAGTAAGATTACGATGAGTATCACAGCTAAAGTGTAGTAAAGCGTTTTGGGTAGACCAAATAGTAGGAGATAGCCCGAAAAGCCTAGAGCAGTTGCAGCTCCGCCAATTACATATGATATTACCCTAAACCAACCCACTAGGAATCCGGACATTTCCCCTAAGGTCTTTAAGGTAAAACTGTAAACTCCTCCTTCAACGTCAGTGAAAATCGAGGATAATTCTGCACTATTTAATCCAATTGACATTGCGAAAATTGCAGT (double strand) [Sso1463 fragment],no binding
